# According to paper PMC7916671:
# These are yes or no findings as the source states them, for the method shown. Binding seen in cells or lysates may run through a third protein. A yes stands for co-enrichment or nearness to the bait. Other partners may have been found. No binding means not detected with the bait.
# Target: Human serum albumin (human (endogenous in serum)), P02768
# Assay: affinity purification with mass spectrometry; IgA and albumin purified from the sera of healthy individuals, digested, LC-MS/MS
# Settings: remark: other sources report otherwise
binder,measurement,value
"Alpha-2-macroglobulin, P01023 24-1474 (protein) SVSGKPQYMVLVPSLLHTETTEKGCVLLSYLNETVTVSASLESVRGNRSLFTDLEAENDVLHCVAFAVPKSSSNEEVMFLTVQVKGPTQEFKKRTTVMVKNEDSLVFVQTDKSIYKPGQTVKFRVVSMDENFHPLNELIPLVYIQDPKGNRIAQWQSFQLEGGLKQFSFPLSSEPFQGSYKVVVQKKSGGRTEHPFTVEEFVLPKFEVQVTVPKIITILEEEMNVSVCGLYTYGKPVPGHVTVSICRKYSDASDCHGEDSQAFCEKFSGQLNSHGCFYQQVKTKVFQLKRKEYEMKLHTEAQIQEEGTVVELTGRQSSEITRTITKLSFVKVDSHFRQGIPFFGQVRLVDGKGVPIPNKVIFIRGNEANYYSNATTDEHGLVQFSINTTNVMGTSLTVRVNYKDRSPCYGYQWVSEEHEEAHHTAYLVFSPSKSFVHLEPMSHELPCGHTQTVQAHYILNGGTLLGLKKLSFYYLIMAKGGIVRTGTHGLLVKQEDMKGHFSISIPVKSDIAPVARLLIYAVLPTGDVIGDSAKYDVENCLANKVDLSFSPSQSLPASHAHLRVTAAPQSVCALRAVDQSVLLMKPDAELSASSVYNLLPEKDLTGFPGPLNDQDNEDCINRHNVYINGITYTPVSSTNEKDMYSFLEDMGLKAFTNSKIRKPKMCPQLQQYEMHGPEGLRVGFYESDVMGRGHARLVHVEEPHTETVRKYFPETWIWDLVVVNSAGVAEVGVTVPDTITEWKAGAFCLSEDAGLGISSTASLRAFQPFFVELTMPYSVIRGEAFTLKATVLNYLPKCIRVSVQLEASPAFLAVPVEKEQAPHCICANGRQTVSWAVTPKSLGNVNFTVSAEALESQELCGTEVPSVPEHGRKDTVIKPLLVEPEGLEKETTFNSLLCPSGGEVSEELSLKLPPNVVEESARASVSVLGDILGSAMQNTQNLLQMPYGCGEQNMVLFAPNIYVLDYLNETQQLTPEIKSKAIGYLNTGYQRQLNYKHYDGSYSTFGERYGRNQGNTWLTAFVLKTFAQARAYIFIDEAHITQALIWLSQRQKDNGCFRSSGSLLNNAIKGGVEDEVTLSAYITIALLEIPLTVTHPVVRNALFCLESAWKTAQEGDHGSHVYTKALLAYAFALAGNQDKRKEVLKSLNEEAVKKDNSVHWERPQKPKAPVGHFYEPQAPSAEVEMTSYVLLAYLTAQPAPTSEDLTSATNIVKWITKQQNAQGGFSSTQDTVVALHALSKYGAATFTRTGKAAQVTIQSSGTFSSKFQVDNNNRLLLQQVSLPELPGEYSMKVTGEGCVYLQTSLKYNILPEKEEFPFALGVQTLPQTCDEPKAHTSFQISLSVSYTGSRSASNMAIVDVKMVSGFIPLKPTVKMLERSNHVSRTEVSSNHVLIYLDKVSNQTLSLFFTVLQDVPVRDLKPAIVKVYDYYETDEFAIAEYNAPCSKDLGNA",binding,no binding
